{"source": "patent US20210353579A1", "about": "“HIGH PENETRATION COMPOSITIONS AND USES THEREOF” (Techfields Pharma Co., Ltd., priority 2006, published 2021);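 as to LD50: acute toxicity in rats expressed as LD50, determined for both prodrugs and their parent compounds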", "key": {"in vivo": {"test": "in vivo", "conditions": "rat"}, "[1]": {"test": "Plasma levels after transdermal administration to hairless mice", "format": "in vivo", "experimental": "Tested compounds (20% solution or suspension in 1 mL isopropanol) are administered transdermally to the skin of intact hairless mice. The plasma levels of the parent compounds are determined by HPLC."}, "human skin tissue": {"system": "human skin tissue", "conditions": "20 %, pH 7.4"}}}
{"smiles": "COc1ccc2cc([C@H](C)C(=O)O)ccc2c1", "note": "[Naproxen, naproxen, reference compound]", "values": [{"measurement": "LD50", "setting": "in vivo", "value": 1200, "unit": "mg/kg"}, {"measurement": "t, time to peak plasma level after parent compound", "setting": "[1]; parent compound administered (time when taken orally)", "value": "2 to 4", "unit": "h"}, {"measurement": "Peak plasma concentration after parent compound", "setting": "[1]; parent compound administered, hairless mice", "value": 10, "unit": "mg/L"}, {"measurement": "In vitro penetration rate (apparent flux), parent compounds", "setting": "human skin tissue", "value": 30, "unit": "μg/cm^2/h"}]}
